In article PMC7269032, “Chiral 4-O-acylterpineol as transdermal permeation enhancers: insights of the enhancement mechanisms of a transdermal enantioselective delivery system for flurbiprofen” (Drug Delivery, 2020):

Assay: ATR-FTIR of stratum corneum after treatment with enhancer
Parameters: species or system rabbit
Conditions: 5% (w/v) enhancer solution 20 μL, 30 min
Experimental: The shaved back was divided into 21 areas (each area in 1 cm^2) and randomly divided into seven groups (n = 3). The marked areas were applied with 5% (w/v) enhancer solution of 20 μL. They were administered as follows: (1) control group only the absolute ethanol; (2) group A with d-4-TER; (3) group B with l-4-TER; (4) group C with d-4-T-C14; (5) group D with l-4-T-C14; (6) group E with d-4-T- dC18; and (7) group F with l-4-T-dC18. After the enhancer was infiltrated of 30 min, the skin of the penetrated area was peeled off. Then the residual solution was blotted up and dried of 15 min. Finally, the treated skin was placed on the surface of zinc selenide (ZnSe) with an incidence angle of 45° and detected by ATR-FTIR spectroscopy (Thermo Nicolet NEXUS 470, Madison, USA). The stratum corneum was scanned 200 times in the detection wavelength range of 1000–4000 cm^−1 at a resolution of 2 cm^−1. Infrared absorption peaks were analyzed using Oringe 7.0.

## CCCCCCCCCCCCCC(=O)OC1(C(C)C)CC=C(C)CC1 (stereo not drawn) [l-4-T-C14, l-4-methyl-1-(1-methylethyl)-3-cyclohexen-1-yl tetradecanoate]
Control 3271.08 cm^−1
  OH vibration peak position of SC lipids after treatment: 3275.90 cm⁻¹

## CCCCCCCCC=CCCCCCCCC(=O)OC1(C(C)C)CC=C(C)CC1 (stereo not drawn) [l-4-T-dC18, l-4-methyl-1-(1-methylethyl)-3-cyclohexen-1-yl octadec-9-enoate]
  shift of OH stretching vibration peak position vs control: shifted to a lower wavenumber
